Assay results published in PMC7819943, “Rice protein-binding microarrays: a tool to detect cis-acting elements near promoter regions in rice”.
This is one part of the list.

target: T1, OsSMF1 (Oryza sativa, UniProt Q6ZLB0 1-436); assay: protein-binding microarray (RPBM); PBS, 2% BSA, 51.3 ng/ul salmon testes DNA, 50 uM zinc acetate, 200 nM TF, 25 C, 1 h; high values mean tight binding; conditions: protein: recombinant; tags: N-terminal polyhistidine and DsRed monomer fusion (pET32a); chain copies: 2; label: CyDye5-dUTP incorporated in the synthesized complementary strand; 3' TTTTT single-stranded linker to array surface; dsDNA, one strand shown
T1 sequence: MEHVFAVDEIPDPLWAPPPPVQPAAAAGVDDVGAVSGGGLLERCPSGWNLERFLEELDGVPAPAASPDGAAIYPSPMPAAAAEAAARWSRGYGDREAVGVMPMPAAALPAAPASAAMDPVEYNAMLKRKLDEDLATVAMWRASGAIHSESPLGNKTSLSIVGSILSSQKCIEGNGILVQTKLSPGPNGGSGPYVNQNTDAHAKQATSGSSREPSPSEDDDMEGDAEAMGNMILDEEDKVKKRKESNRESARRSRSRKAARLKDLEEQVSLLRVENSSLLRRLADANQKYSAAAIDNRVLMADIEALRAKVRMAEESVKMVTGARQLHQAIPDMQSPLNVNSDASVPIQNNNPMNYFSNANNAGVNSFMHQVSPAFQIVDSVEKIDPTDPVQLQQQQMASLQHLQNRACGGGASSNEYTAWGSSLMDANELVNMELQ
Method in brief: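 Binding signal here means per-feature fluorescence intensity in arbitrary units. The values were read on an Axon 4000B scanner after a custom Agilent array, double-stranded by primer extension with Cy5-dUTP, was incubated with 200 nM protein at 25 °C for 1 h in PBS with 2% BSA, salmon testes DNA and 50 µM zinc acetate, then washed. The proteins were transcription factors with an N-terminal polyhistidine tag and DsRed, expressed in E. coli BL21-CodonPlus and purified on Ni–NTA.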

| Sequence | binding signal |
| --- | --- |
| CGATATATGCCTTGATGATCTACGGGAGGATAAGCCTCGGCGGAGTCACCTAGTGCAG | 13100 fluorescence intensity (a.u.) |
| CAGACGGATTATGTAATTTGTTTTATTATTAATTAGTCTACGGAGTCACCTAGTGCAG | 3890 fluorescence intensity (a.u.) |
| TGATAAATTACCCATCTATTAGTCATACCAGTGGCTTTGTCGGAGTCACCTAGTGCAG | 3500 fluorescence intensity (a.u.) |
| GCCGCCGCCGCCGCCGCCGCCGCTGTGTGTACGACTACGACGGAGTCACCTAGTGCAG | 3250 fluorescence intensity (a.u.) |
| TCAATAGATTTTCAGATACCTACGTGGTACATCTAGTGCTCGGAGTCACCTAGTGCAG | 4090 fluorescence intensity (a.u.) |
| TTAAATTTCCCCTTGAAACCACTCTGAAACATTTGTAGAGCGGAGTCACCTAGTGCAG | 3360 fluorescence intensity (a.u.) |
| TCTGCTGCGTGACGACGCCTCGTCGCCTTCTCTACCTCTCCGGAGTCACCTAGTGCAG | 3870 fluorescence intensity (a.u.) |
| ACTCGTCGCCCTCTCATCTCATGTTGTAGTATTCCCTCCGCGGAGTCACCTAGTGCAG | 3490 fluorescence intensity (a.u.) |
| ACCATCGGCACGTCACAACTACTTTTACACGTTTTATAAACGGAGTCACCTAGTGCAG | 3720 fluorescence intensity (a.u.) |
| ACTTTGTTTGCACTTAAGTTGGGTGATGTGTTGTATCCGGCGGAGTCACCTAGTGCAG | 3710 fluorescence intensity (a.u.) |
| AGAACAAAACCATATGCCCTATATGTCATACACATGTAATCGGAGTCACCTAGTGCAG | 3620 fluorescence intensity (a.u.) |
| TGCACAAGATGACCTGTACGTGTCGCTTGTTTGCCACGCCCGGAGTCACCTAGTGCAG | 9190 fluorescence intensity (a.u.) |
| CCCCACCCACCGCCTGCCAGCGCCACCCCACCTCGCGCCTCGGAGTCACCTAGTGCAG | 3180 fluorescence intensity (a.u.) |
| AACCTTTGTAACTACTACCTCCATATTTTAATGTATGACGCGGAGTCACCTAGTGCAG | 3200 fluorescence intensity (a.u.) |
| CGCATTTTACTAGGAATAAGTCCATTTGTCATCCCTCATCCGGAGTCACCTAGTGCAG | 3180 fluorescence intensity (a.u.) |
| ACATGCTGATAAGTGGGCCCAAATATCTACCACGTAAGTGCGGAGTCACCTAGTGCAG | 4710 fluorescence intensity (a.u.) |
| GCTCAACGCGCCGCCTCTGCGGTGTCAGCTGCTGGGCCCCCGGAGTCACCTAGTGCAG | 7230 fluorescence intensity (a.u.) |
| GATCACTTACTTTTAAGAGTCACGAATTGAACTTATTCCACGGAGTCACCTAGTGCAG | 3430 fluorescence intensity (a.u.) |
| TTATCTTGCTGATGGCATATATCCTTCTTGGGCCACATTTCGGAGTCACCTAGTGCAG | 4140 fluorescence intensity (a.u.) |
| CCTCCCGCTGATCGCGACCAGTCCACGTTGCCCATCTTCTCGGAGTCACCTAGTGCAG | 5440 fluorescence intensity (a.u.) |
| GAAGTAGGACACTCAGCAGTCTCAGCTCTCACTCTCCGTCCGGAGTCACCTAGTGCAG | 3170 fluorescence intensity (a.u.) |
| GAGAGTATTTTGACCTGTATACAGTCAGAGATGTACACTACGGAGTCACCTAGTGCAG | 4420 fluorescence intensity (a.u.) |
| CTCTAGCTCTACGTGAACACCTTGGCCGTCATCAAATCCGCGGAGTCACCTAGTGCAG | 3690 fluorescence intensity (a.u.) |
| CATCGTCCGCCGTGACACGCTGGCGGAGTCCGTGGTGCTACGGAGTCACCTAGTGCAG | 5010 fluorescence intensity (a.u.) |
| AACTGACGAACTGAATACCATCATATGTATTCTATAAGCGCGGAGTCACCTAGTGCAG | 31400 fluorescence intensity (a.u.) |
| CTCCTGGTCCGGGGCAGTTCAGTTTGGCCATACGTGGCGTCGGAGTCACCTAGTGCAG | 7600 fluorescence intensity (a.u.) |
| TGAGATGATGTGTGTTGTTCATTGTGCTTGTGTTGGAGATCGGAGTCACCTAGTGCAG | 4970 fluorescence intensity (a.u.) |

Quoted at random: 4 records from the list

| Sequence | binding signal |
| --- | --- |
| ACTTTGTTTGCACTTAAGTTGGGTGATGTGTTGTATCCGGCGGAGTCACCTAGTGCAG | 3710 fluorescence intensity (a.u.) |
| AACCTTTGTAACTACTACCTCCATATTTTAATGTATGACGCGGAGTCACCTAGTGCAG | 3200 fluorescence intensity (a.u.) |
| CATCGTCCGCCGTGACACGCTGGCGGAGTCCGTGGTGCTACGGAGTCACCTAGTGCAG | 5010 fluorescence intensity (a.u.) |
| AGAACAAAACCATATGCCCTATATGTCATACACATGTAATCGGAGTCACCTAGTGCAG | 3620 fluorescence intensity (a.u.) |

Following part.

| Sequence | binding signal |
| --- | --- |
| TAGGCAAGCCGCAAGACGAAGAAGATGAACACGACAGTGCCGGAGTCACCTAGTGCAG | 3240 fluorescence intensity (a.u.) |
| AGGTGGTCTTCGCGCGCCACCGCTCCGGCCGCCGTCGCCCCGGAGTCACCTAGTGCAG | 16900 fluorescence intensity (a.u.) |
| ATTAACGTTTCACCCGCGCGCGCCCACCTGCCGCTGCAATCGGAGTCACCTAGTGCAG | 3300 fluorescence intensity (a.u.) |
| GGTGGTGGTGGTGGGTTTTGCTATCTCTGCGTGCGTGTTCCGGAGTCACCTAGTGCAG | 4410 fluorescence intensity (a.u.) |
| GACCTGTAGCCCATCACAATCAACTCGACAAGAACATCGACGGAGTCACCTAGTGCAG | 5720 fluorescence intensity (a.u.) |
| CCTCGATTCCTCTCCCTCCCAATCCACCTCCTCCTCCTCGCGGAGTCACCTAGTGCAG | 3160 fluorescence intensity (a.u.) |
| ACCGACTGACTCATAATCTCTTCTCCTTGCTCTCTAGTTTCGGAGTCACCTAGTGCAG | 6710 fluorescence intensity (a.u.) |
| GCTCGCTCGGCCACCTCGCCGCACCACCGTGTCACCCGCCCGGAGTCACCTAGTGCAG | 4490 fluorescence intensity (a.u.) |
| GCTATGTCCCTTTTGCTTATACCTTGGGGCCACACCCTTTCGGAGTCACCTAGTGCAG | 19800 fluorescence intensity (a.u.) |
| AGGGAGTAAGTAGCTAAATACCTACACTAATACTTAAATACGGAGTCACCTAGTGCAG | 14300 fluorescence intensity (a.u.) |
| GTGGGAGTCGGATCAAGGGTGGAGAAAAGCGCAACGCAGCCGGAGTCACCTAGTGCAG | 23400 fluorescence intensity (a.u.) |
| TAGTGACCTCACCGATAAAACCCCTGCCACGTCGACAGGACGGAGTCACCTAGTGCAG | 14400 fluorescence intensity (a.u.) |
| CGCCCACGGCGTGTCCCCTGCGTGCGTGGCGCACCCGCACCGGAGTCACCTAGTGCAG | 7240 fluorescence intensity (a.u.) |
| CACCGGCTCGTCCGTACCGGCCGTGGCCGCCATCGTCACGCGGAGTCACCTAGTGCAG | 4180 fluorescence intensity (a.u.) |
| GTGAGCGGAGTGGGAGGGGAGGCGTCGGTGGCGTCAGGCCCGGAGTCACCTAGTGCAG | 5160 fluorescence intensity (a.u.) |
| GGAATAGATAACACATCTGTCCTGCAAGCTACTGATGAGTCGGAGTCACCTAGTGCAG | 3410 fluorescence intensity (a.u.) |
| TAGGTTAGTGGTGGCTGGGTCGTCACGTCATTGCATTGCACGGAGTCACCTAGTGCAG | 3270 fluorescence intensity (a.u.) |
| GCAATAATGAGCCAAACCAAGGCTTACCTGAGTCAACACACGGAGTCACCTAGTGCAG | 4350 fluorescence intensity (a.u.) |
| ATATTTTATATGTGCAAGTATGTGTCATGTGTGCATTTGTCGGAGTCACCTAGTGCAG | 4560 fluorescence intensity (a.u.) |
| ATCCCATGACATGTGGGTCTGATCAATGGTGACTGACCCACGGAGTCACCTAGTGCAG | 3360 fluorescence intensity (a.u.) |
| AAGATTTCTCTTATTTATTAGAGCGACACGTGACATCGCTCGGAGTCACCTAGTGCAG | 4260 fluorescence intensity (a.u.) |
| TGATTCTGTGAGTGCAGTCCTCGTCAGCAATATTATCTAACGGAGTCACCTAGTGCAG | 6270 fluorescence intensity (a.u.) |
| AGTACTGGATGTGACACATCCTGGTACTACGAATCTGAACCGGAGTCACCTAGTGCAG | 3910 fluorescence intensity (a.u.) |
| GTCGCGGAGCCTCGCCGGGTCGACGGAGAGGATGCCGTGGCGGAGTCACCTAGTGCAG | 3190 fluorescence intensity (a.u.) |
| GGCTTAATTGTTGATTAAACATCAGGCTCTTCTTGCATATCGGAGTCACCTAGTGCAG | 23800 fluorescence intensity (a.u.) |
| CCCTCGCAACGTGCTTTTCGCCAGCGAGTGGTGTAATTTTCGGAGTCACCTAGTGCAG | 31600 fluorescence intensity (a.u.) |
| AGCCAAAGCATTTGCCATCCGATGAGGGCGTACTATTAAACGGAGTCACCTAGTGCAG | 28000 fluorescence intensity (a.u.) |
